Reference: US6528656B1, “Linear or cyclic aminophosphonates as pH markers in phosphorus 31 NMR spectroscopy” (Centre National de la Recherche Scientifique (CNRS), priority 1998, dated 2003)

Type: physicochemical

CCOP(=O)(OCC)C1(C)CCCN1 (centres unmarked) [Compound 1, 2-methyl-2-diethoxyphosphorylpyrrolidine]
amplitude of the chemical shift variation (pH 4 to 10, 22° C. (difference of the printed limits)): 9.642
amplitude of the chemical shift variation (pH 4 to 10, 37° C. (difference of the printed limits)): 9.649

Read-outs that look alike come from different tables or passages of the source.
